{"source": "PubChem BioAssay AID1508587 (Peter MacCallum Cancer Centre, 2020)", "assay": "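Follow-up of vemurafenib sensitisers scored by lactate made per cell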 (follow-up of hits)", "cells": "human WM266.4 melanoma cells with a BRAF V600 mutation", "reagents": "single siRNA against human genes, 25 nM", "timing": "96 h", "conditions": "vemurafenib 300 nM (about IC25), given 48 h after transfection for 48 h", "measured": "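Medium lactate read by absorbance over DAPI-counted nuclei; ratio with versus without vemurafenib, set against non-targeting siRNA, averaged over 2 replicates; cell number also recorded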", "reading the numbers": "lactate per cell, drug vs no drug: higher = less drug-induced drop in lactate per cell; lactate per cell with vemurafenib: higher = more lactate per cell under drug", "call rule": "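a duplex is active when its lactate-per-cell ratio with versus without drug falls under 0.55, i.e. 2 SD below non-targeting; a gene is confirmed if 2 or more of 4 duplexes pass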", "note": "In all, the deposit lists about 1,600 reagents; this is a random part of them. In the full data, 623 (39%) got an active call. 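Calls are for each duplex; lactate ratios contain extreme outliers.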 Reagents against one gene are numbered here. Not all columns of the deposit are shown. Reagent sequences are not shown."}
{"Target gene": "RRP8 (ribosomal RNA processing 8)", "reagent": 1, "lactate per cell, drug vs no drug": 0.44, "lactate per cell with vemurafenib": 2.11, "call": "active"}
{"Target gene": "RRP8 (ribosomal RNA processing 8)", "reagent": 2, "lactate per cell, drug vs no drug": 0.48, "lactate per cell with vemurafenib": 0.57, "call": "active"}
{"Target gene": "RRP8 (ribosomal RNA processing 8)", "reagent": 3, "lactate per cell, drug vs no drug": 0.58, "lactate per cell with vemurafenib": 0.85, "call": "inactive"}
{"Target gene": "RRP8 (ribosomal RNA processing 8)", "reagent": 4, "lactate per cell, drug vs no drug": 0.45, "lactate per cell with vemurafenib": 0.79, "call": "active"}

2 entries from above, ordered by “lactate per cell, drug vs no drug”, descending:
{"Target gene": "RRP8 (ribosomal RNA processing 8)", "reagent": 3, "lactate per cell, drug vs no drug": 0.58, "lactate per cell with vemurafenib": 0.85, "call": "inactive"}
{"Target gene": "RRP8 (ribosomal RNA processing 8)", "reagent": 2, "lactate per cell, drug vs no drug": 0.48, "lactate per cell with vemurafenib": 0.57, "call": "active"}

Additional results follow:
{"Target gene": "ELMO2 (engulfment and cell motility 2)", "reagent": 1, "lactate per cell, drug vs no drug": 0.54, "lactate per cell with vemurafenib": 1.07, "call": "active"}
{"Target gene": "ELMO2 (engulfment and cell motility 2)", "reagent": 2, "lactate per cell, drug vs no drug": 0.57, "lactate per cell with vemurafenib": 2.58, "call": "inactive"}
{"Target gene": "ELMO2 (engulfment and cell motility 2)", "reagent": 3, "lactate per cell, drug vs no drug": 0.5, "lactate per cell with vemurafenib": 0.7, "call": "active"}
{"Target gene": "ELMO2 (engulfment and cell motility 2)", "reagent": 4, "lactate per cell, drug vs no drug": 0.62, "lactate per cell with vemurafenib": 1.23, "call": "inactive"}
{"Target gene": "TM9SF2 (transmembrane 9 superfamily member 2)", "reagent": 1, "lactate per cell, drug vs no drug": 0.46, "lactate per cell with vemurafenib": 1.36, "call": "active"}
{"Target gene": "TM9SF2 (transmembrane 9 superfamily member 2)", "reagent": 2, "lactate per cell, drug vs no drug": 0.74, "lactate per cell with vemurafenib": 1.13, "call": "inactive"}
{"Target gene": "TM9SF2 (transmembrane 9 superfamily member 2)", "reagent": 3, "lactate per cell, drug vs no drug": 0.55, "lactate per cell with vemurafenib": 0.6, "call": "inactive"}
{"Target gene": "TM9SF2 (transmembrane 9 superfamily member 2)", "reagent": 4, "lactate per cell, drug vs no drug": 0.58, "lactate per cell with vemurafenib": 0.73, "call": "inactive"}
